Laboratory results taken from patent publication US20230416740A1.
No constants are given. Whether binding was seen depends on the method and setting. Binding seen in cells or lysates may run through a third protein. Some results given as binding are weak or reduced against the parent protein; the word gives no strength. Tags and fused reporters may be left off the sequences shown. Each block holds one binder with its values, some of them ahead of it.

Chains of the proteins cited; added tags and fusions are not shown. Lines headed by an entry give the natural chain unless they say otherwise; changes in a name come on top. A line that says so, or that is headed by a name, gives the form on record, which may keep a tag or linker. Residues count along the entry.
UniProt Q8K212: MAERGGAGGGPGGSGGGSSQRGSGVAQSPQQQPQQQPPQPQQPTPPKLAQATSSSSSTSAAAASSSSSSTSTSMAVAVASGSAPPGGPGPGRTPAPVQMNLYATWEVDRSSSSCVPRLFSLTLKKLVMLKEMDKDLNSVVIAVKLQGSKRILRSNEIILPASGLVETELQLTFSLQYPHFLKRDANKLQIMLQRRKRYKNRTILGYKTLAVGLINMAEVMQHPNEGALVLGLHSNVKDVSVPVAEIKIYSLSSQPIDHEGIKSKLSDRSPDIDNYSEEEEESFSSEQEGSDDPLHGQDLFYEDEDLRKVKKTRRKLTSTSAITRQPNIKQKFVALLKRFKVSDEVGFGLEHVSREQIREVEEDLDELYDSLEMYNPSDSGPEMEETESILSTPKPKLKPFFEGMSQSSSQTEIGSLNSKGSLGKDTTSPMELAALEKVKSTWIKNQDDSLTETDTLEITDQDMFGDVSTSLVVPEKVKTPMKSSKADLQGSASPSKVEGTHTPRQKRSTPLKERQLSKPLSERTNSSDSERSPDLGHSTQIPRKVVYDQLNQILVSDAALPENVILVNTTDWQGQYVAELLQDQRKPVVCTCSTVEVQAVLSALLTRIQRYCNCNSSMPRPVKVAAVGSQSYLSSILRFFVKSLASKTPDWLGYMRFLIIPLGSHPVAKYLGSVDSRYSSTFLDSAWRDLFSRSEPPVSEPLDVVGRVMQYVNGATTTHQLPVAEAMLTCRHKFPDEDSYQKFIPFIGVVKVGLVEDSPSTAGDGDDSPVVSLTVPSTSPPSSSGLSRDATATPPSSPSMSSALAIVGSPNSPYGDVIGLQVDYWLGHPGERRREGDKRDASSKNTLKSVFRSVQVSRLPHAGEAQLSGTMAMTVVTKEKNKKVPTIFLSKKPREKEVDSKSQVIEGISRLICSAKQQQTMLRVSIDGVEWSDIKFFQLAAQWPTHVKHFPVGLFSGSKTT
HA-Pacs1: residues 114-961 of Q8K212
FLAG-tagged Pacs1 (amino acids 171-961): residues 171-961 of Q8K212

Assays:
[1] = molecular target: FLAG-tagged Pacs1 (amino acids 171-961) (mouse) (UniProt Q8K212); assay: co-immunoprecipitation in co-transfected 293T cells (figure legend)
[2] = molecular target: FLAG-tagged Pacs1 (amino acids 171-961) (mouse) (UniProt Q8K212); assay: co-immunoprecipitation on anti-FLAG resin from co-transfected HEK 293T cells, western blot
[3] = molecular target: HA-Pacs1 (mouse) (UniProt Q8K212); assay: co-immunoprecipitation in co-transfected 293T cells (figure legend)
[4] = molecular target: HA-Pacs1 (mouse) (UniProt Q8K212); assay: reciprocal co-immunoprecipitation on anti-FLAG resin from co-transfected HEK 293T cells, western blot

binding [1]: binds | binding [2]: binds
B1: HA-tagged full-length Wdr37 (protein, mouse, UniProt Q8CBE3 1-496, looked up, not shown: small tags and cut ends)
chain: MPTESGSCSTARQAKQKRKSHSLSIRRTNSSEQERTGLPREMLEGQDSKLPSSVRSTLLELFGQIEREFENLYIENLELRREIDTLNERLAGEGQAIDGAELSKGQLKTKASHSTSQLSQKLKTTYKASTSKIVSSFKTTTSRAICQLVKEYIGHRDGIWDVSVTRTQPIVLGTASADHTALLWSIETGKCLVKYAGHVGSVNSIKFHPSEQLALTASGDQTAHIWRYVVQLPTPQPVADTSQQISGEDEIECSDKDEPDIDGDVSSDCPTVRVPLTSLKSHQGVVIAADWLVGGKQVVTASWDRTANLYDVETSELVHSLTGHDQELTHCCTHPTQRLVVTSSRDTTFRLWDFRDPSIHSVNVFQGHTDTVTSAVFTVGDNVVSGSDDRTVKVWDLKNMRSPIATIRTDSAINRINVCVGQKIIALPHDNRQVRLFDMSGVRLARLPRSSRQGHRRMVCCSAWSEDHPICNLFTCGFDRQAIGWNINIPALLQEK

binding [3]: binds | binding [4]: binds
B2: FLAG-Wdr37 (protein, mouse, UniProt Q8CBE3 1-496, looked up, not shown: small tags and cut ends)
chain: B1 chain
